{
  "source": "patent US8399014B2",
  "about": "“Physiologically active complex comprising protamine and/or salt therefor and an acidic macromolecular substance, and use thereof” (Maruha Nichiro Foods, Inc., priority 2008, dated 2013)",
  "key": {"[1]": {"assay": "Sensory test: effect of test substances on reducing the harsh/astringent taste of protamine", "design": "species or system human", "conditions": "supernatant/solution of 1:1 mixture with protamine, protamine 10 mg/mL"}, "[2]": {"assay": "Study on concentration of protamine at which the harsh/astringent taste is sensed (sensory test)", "design": "species or system human"}},
  "data": [
    {"compound": "O=C(O)CC(O)C(=O)O", "note": "(racemic) [Malic acid, DL-malic acid]", "values": [
      {"measurement": "Aqueous solution (taste)", "setting": "[1]", "value": "No effect"}
    ]},
    {"compound": "O=C(O)CC(O)(CC(=O)O)C(=O)O", "note": "[Citric acid, citric acid (anhydride)]", "values": [
      {"measurement": "Aqueous solution (taste)", "setting": "[1]", "value": "No effect"}
    ]},
    {"compound": "protamine", "values": [
      {"measurement": "concentration of protamine at which all persons sensed the taste", "setting": "[2]; 0.5 mL aqueous solution", "value": 500, "unit": "µg/mL"},
      {"measurement": "persons who had a feeling of discomfort", "setting": "[2]; protamine 1,000 μg/mL", "value": 80, "unit": "%"}
    ]}
  ]
}
